The record followed here is paper doi:10.1101/2025.09.03.674015.

Amino acid sequences for entries named in this document (tags omitted).
UniProt P18067: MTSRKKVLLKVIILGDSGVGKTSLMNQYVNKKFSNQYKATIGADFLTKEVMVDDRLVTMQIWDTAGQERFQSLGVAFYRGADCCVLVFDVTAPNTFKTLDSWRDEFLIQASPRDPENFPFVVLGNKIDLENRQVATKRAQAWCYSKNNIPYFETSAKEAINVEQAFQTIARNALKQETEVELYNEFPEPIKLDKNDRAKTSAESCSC
UniProt Q9JHU4: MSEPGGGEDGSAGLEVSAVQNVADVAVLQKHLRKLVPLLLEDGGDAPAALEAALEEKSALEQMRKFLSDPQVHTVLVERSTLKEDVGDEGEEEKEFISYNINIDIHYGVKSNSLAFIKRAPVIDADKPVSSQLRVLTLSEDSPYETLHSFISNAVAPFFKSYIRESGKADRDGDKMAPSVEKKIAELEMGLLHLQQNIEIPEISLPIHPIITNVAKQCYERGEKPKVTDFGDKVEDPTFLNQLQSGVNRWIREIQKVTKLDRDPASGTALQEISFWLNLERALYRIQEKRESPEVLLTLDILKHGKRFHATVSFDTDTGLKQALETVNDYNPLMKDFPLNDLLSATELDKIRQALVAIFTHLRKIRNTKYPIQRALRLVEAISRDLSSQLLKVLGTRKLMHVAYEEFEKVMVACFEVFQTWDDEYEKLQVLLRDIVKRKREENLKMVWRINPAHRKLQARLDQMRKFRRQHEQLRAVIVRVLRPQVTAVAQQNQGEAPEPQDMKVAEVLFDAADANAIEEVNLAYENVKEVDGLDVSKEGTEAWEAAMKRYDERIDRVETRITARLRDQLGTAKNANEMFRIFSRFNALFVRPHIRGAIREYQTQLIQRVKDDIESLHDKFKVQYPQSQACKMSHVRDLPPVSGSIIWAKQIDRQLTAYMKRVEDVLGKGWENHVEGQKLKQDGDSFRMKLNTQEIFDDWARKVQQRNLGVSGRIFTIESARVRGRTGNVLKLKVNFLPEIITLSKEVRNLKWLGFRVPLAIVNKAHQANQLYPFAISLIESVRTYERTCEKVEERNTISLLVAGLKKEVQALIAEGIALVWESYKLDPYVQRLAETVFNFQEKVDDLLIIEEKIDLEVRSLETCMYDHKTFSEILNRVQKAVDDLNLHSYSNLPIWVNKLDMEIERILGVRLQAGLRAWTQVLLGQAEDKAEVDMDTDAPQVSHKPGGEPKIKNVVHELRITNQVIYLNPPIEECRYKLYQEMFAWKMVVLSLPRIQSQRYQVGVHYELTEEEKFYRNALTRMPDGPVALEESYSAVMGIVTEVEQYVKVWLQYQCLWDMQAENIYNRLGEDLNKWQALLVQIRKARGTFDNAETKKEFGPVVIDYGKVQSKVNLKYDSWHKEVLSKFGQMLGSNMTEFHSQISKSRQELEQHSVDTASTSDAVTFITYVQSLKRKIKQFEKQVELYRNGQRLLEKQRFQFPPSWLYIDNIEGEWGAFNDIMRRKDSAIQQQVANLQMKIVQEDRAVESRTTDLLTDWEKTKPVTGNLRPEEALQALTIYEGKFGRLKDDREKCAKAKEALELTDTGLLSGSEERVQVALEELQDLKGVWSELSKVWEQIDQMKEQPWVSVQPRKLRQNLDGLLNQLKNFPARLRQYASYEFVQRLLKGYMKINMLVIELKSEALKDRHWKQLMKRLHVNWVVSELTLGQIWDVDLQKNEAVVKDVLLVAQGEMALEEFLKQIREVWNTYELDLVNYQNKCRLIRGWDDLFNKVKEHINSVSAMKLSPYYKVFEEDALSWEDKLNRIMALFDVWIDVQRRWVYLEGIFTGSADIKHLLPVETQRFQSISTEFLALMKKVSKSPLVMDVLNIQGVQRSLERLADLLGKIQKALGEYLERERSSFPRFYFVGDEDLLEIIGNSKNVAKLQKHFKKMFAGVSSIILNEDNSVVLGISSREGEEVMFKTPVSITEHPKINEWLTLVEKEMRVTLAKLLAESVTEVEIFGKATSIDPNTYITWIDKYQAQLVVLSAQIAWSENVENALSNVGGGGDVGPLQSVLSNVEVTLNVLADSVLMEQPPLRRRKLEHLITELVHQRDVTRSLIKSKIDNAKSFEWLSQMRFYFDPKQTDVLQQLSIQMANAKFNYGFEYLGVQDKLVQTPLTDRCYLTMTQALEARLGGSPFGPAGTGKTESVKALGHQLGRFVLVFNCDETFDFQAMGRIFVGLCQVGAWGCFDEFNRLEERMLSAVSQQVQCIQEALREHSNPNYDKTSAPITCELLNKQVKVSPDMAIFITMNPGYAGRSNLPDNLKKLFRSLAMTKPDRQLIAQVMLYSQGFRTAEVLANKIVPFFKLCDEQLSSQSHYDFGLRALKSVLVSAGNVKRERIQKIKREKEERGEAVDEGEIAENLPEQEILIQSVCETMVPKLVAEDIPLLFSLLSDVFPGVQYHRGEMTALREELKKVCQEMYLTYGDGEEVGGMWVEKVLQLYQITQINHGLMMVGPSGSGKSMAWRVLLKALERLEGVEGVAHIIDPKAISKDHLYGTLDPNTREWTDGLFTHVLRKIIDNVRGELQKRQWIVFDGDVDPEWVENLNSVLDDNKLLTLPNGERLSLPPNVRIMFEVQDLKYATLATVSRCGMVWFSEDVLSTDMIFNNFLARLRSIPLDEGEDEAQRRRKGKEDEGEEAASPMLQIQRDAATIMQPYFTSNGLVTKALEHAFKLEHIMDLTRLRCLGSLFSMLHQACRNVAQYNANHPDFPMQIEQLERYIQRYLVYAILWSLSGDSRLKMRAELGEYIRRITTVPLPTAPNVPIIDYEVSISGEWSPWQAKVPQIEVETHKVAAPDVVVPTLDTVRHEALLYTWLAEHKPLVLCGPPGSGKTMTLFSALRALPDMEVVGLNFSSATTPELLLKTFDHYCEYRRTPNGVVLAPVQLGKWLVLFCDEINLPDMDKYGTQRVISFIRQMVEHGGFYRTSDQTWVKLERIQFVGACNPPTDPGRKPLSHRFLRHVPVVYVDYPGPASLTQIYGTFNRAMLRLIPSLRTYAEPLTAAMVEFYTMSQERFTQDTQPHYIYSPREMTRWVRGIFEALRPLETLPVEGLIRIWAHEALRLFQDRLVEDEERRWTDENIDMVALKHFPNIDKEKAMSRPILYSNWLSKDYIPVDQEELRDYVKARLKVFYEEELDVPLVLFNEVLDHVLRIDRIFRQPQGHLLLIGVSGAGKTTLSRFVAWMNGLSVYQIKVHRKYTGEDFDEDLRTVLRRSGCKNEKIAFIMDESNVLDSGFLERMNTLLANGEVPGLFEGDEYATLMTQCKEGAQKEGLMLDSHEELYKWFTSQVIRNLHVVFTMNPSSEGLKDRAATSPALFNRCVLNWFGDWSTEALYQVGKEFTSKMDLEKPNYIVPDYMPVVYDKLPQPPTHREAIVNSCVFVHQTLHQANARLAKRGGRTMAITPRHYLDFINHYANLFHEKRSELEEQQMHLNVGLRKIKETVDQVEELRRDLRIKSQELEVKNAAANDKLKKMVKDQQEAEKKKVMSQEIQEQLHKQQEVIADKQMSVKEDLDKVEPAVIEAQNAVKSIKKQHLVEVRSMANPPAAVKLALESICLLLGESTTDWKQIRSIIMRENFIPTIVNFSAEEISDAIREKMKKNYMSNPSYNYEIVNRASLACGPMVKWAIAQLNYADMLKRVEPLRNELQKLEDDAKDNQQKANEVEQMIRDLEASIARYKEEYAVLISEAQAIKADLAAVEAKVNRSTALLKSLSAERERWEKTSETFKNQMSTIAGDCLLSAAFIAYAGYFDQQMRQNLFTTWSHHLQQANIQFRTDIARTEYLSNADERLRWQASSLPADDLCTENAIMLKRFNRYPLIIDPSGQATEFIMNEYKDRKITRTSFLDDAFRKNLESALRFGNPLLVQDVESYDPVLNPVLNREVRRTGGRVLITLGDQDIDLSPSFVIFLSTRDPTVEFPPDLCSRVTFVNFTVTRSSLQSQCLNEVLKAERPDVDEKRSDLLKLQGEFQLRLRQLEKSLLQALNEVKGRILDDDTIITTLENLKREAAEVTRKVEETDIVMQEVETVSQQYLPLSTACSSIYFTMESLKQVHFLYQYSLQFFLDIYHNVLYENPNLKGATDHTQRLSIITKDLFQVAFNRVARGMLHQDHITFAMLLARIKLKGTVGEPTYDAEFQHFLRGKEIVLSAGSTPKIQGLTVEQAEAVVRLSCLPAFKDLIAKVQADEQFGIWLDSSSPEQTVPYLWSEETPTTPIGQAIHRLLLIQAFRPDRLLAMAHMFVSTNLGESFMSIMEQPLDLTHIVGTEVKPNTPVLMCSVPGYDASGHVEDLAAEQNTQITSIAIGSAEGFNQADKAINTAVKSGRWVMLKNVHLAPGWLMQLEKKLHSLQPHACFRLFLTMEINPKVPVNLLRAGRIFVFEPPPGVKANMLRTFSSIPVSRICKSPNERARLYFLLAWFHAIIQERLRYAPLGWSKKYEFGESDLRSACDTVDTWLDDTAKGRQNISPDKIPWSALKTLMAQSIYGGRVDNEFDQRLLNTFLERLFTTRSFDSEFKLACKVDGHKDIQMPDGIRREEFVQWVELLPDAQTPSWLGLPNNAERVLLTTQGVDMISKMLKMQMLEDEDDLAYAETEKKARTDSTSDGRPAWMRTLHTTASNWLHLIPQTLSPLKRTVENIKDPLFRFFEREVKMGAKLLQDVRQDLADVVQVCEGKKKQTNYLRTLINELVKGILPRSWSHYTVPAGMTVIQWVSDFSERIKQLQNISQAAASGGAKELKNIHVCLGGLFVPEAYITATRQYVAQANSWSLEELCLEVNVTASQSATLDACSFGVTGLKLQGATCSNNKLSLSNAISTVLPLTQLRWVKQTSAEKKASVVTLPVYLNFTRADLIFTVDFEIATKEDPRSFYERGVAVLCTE

No constants are given. Whether binding was seen depends on the method and setting. Binding seen in cells or lysates may run through a third protein. A yes stands for co-enrichment or nearness to the bait. Other partners may have been found.

The experiment addresses recombinant GST-Rab7 phosphorylated in vitro by TBK1 (UniProt P18067). Nature of the experiment: affinity purification with mass spectrometry.

Regarding “cytoplasmic dynein heavy chain (Dync1h1) (from UniProt Q9JHU4 1-4644)”, the binding result is “binds”.
